{"source": "patent US11291205B2", "about": "“Microbiocidal picolinamide derivatives” (Syngenta Participations AG, priority 2017, dated 2022)", "note": "Some results were stated once for a whole list of compounds, not compound by compound.", "data": [{"system": "Magnaporthe grisea (Pyricularia oryzae)", "assay_type": "in vivo", "settings": "200 ppm in the formulation; rice leaf segments cv. Ballila; compared to untreated control; 5 to 7 days after application", "values": [{"compound": "COc1ccnc(C(=O)N[C@@H](C)C(=O)OC2CCC2(c2ccc(F)cc2)C2CC2)c1O", "note": "(stereo partly drawn) [I.ar.02, [2-cyclopropyl-2-(4-fluorophenyl)cyclobutyl] (2S)-2-[(3-hydroxy-4-methoxy-pyridine-2-carbonyl)amino]propanoate]", "disease control": "at least 80%"}, {"compound": "CCC1(c2ccc(F)cc2)CCC1OC(=O)[C@H](C)NC(=O)c1nccc(OC)c1O", "note": "(stereo partly drawn) [I.ag.02, [2-ethyl-2-(4-fluorophenyl)cyclo-butyl] (2S)-2-[(3-hydroxy-4-methoxy-pyridine-2-carbonyl)amino]propanoate]", "disease control": "at least 80%"}, {"compound": "COc1cccc(C2(c3cccc(OC)c3)CCC2OC(=O)[C@H](C)NC(=O)c2nccc(OC)c2O)c1", "note": "(some centres unmarked) [I.t.02]", "disease control": "at least 80%"}, {"compound": "COc1ccnc(C(=O)N[C@@H](C)C(=O)OC2CCC2(c2ccc(Cl)cc2)C2CC2)c1O", "note": "(stereo partly drawn) [I.as.02, [2-(4-chlorophenyl)-2-cyclopropyl-cyclobutyl] (2S)-2-[(3-hydroxy-4-methoxy-pyridine-2-carbonyl)amino]propanoate]", "disease control": "at least 80%"}, {"compound": "COc1ccnc(C(=O)N[C@@H](C)C(=O)OC2CCC2(c2cccc(C)c2)c2cccc(C)c2)c1O", "note": "(stereo partly drawn) [I.s.02, [2,2-bis(m-tolyl)cyclobutyl] (2S)-2-[(3-hydroxy-4-methoxy-pyridine-2-carbonyl)amino]propanoate]", "disease control": "at least 80%"}]}]}
